Experimental data: PubChem BioAssay AID504791 (Drosophila RNAi Screening Center, 2011)
In all, the deposit lists about 23,000 reagents; this is a random part of those with a known target gene and a result. In the full data, 199 (0.86%) are marked active. 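Plate-scaled ratios behind the calls are not deposited; printed light signals are raw; many rows marked increased or decreased are still called inactive.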 Names joined by + are all predicted targets of the reagent. Not stated in the record: the direction of the score.

Test: 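Genes whose knock-down strengthens or weakens small-RNA reporter silencing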 (primary screen)
Cells: Drosophila S2-derived reporter cells
Reagents: long dsRNA against Drosophila genes, about 150-250 ng dsRNA per well (siRNA assay); about 80-120 ng (miRNA assay)
Duration: about 5 days (siRNA assay); about 4 days (miRNA assay)
Treatment: copper sulfate induction of reporters: 25 µM (siRNA assay); 200 mM stated (miRNA assay), 1-2 days before reading
Read-out: 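Per-well ratio of Renilla over firefly light, expressed relative to that plate's average ratio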
Rule for the call: 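a well was a first-pass pick when its plate-scaled ratio rose above 1.5 (siRNA assay) or 1.6 (miRNA assay), or dropped below 0.6; a gene counted only if two separate dsRNAs agreed on retest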

Target gene | dsRNA | stable siRNA reporter change | miRNA reporter change | stable assay Renilla, run 1 (luminescence) | stable assay firefly, run 1 (luminescence) | call
Pdp (Pyruvate dehydrogenase phosphatase) | DRSC17825 | – | – | 7544 | 3.68e5 | inactive
Jon44E (Jonah 44E) | DRSC07216 | – | – | 5847 | 3.15e5 | inactive
CG12498 | DRSC18635 | – | – | 6599 | 3.79e5 | inactive
Yp2 (Yolk protein 2) | DRSC18732 | – | – | 8028 | 3.87e5 | inactive
eEF1alpha1 (eukaryotic translation elongation factor 1 alpha 1) | DRSC07421 | – | – | 5015 | 3.84e5 | inactive
cerv (cervantes) | DRSC19681 | – | – | 5506 | 3.50e5 | inactive
cerv (cervantes) | DRSC25320 | – | reporter ratio lowered past the hit cutoff | – | – | inactive
Mdh2 (retired record) | DRSC16361 | – | – | 6762 | 3.39e5 | inactive
P5cr-2 (Pyrroline-5-carboxylate reductase-like 2) | DRSC15889 | – | – | 7507 | 3.34e5 | inactive
Rpn6 (Regulatory particle non-ATPase 6) | DRSC07541 | – | – | 5016 | 1.83e5 | inactive
CG31200 | DRSC15285 | – | – | 6750 | 2.36e5 | inactive
nAChRalpha6 (nicotinic Acetylcholine Receptor alpha6) | DRSC01096 | – | – | 5488 | 3.98e5 | inactive
nAChRalpha6 (nicotinic Acetylcholine Receptor alpha6) | DRSC02738 | – | – | 6879 | 2.89e5 | inactive
CG17163 | DRSC20901 | – | – | 6280 | 5.08e5 | inactive
CG42818 + Ca-Ma2d | DRSC01963 | – | – | 7022 | 3.60e5 | inactive
Nepl3 (Neprilysin-like 3) | DRSC02681 | – | reporter ratio raised past the hit cutoff | 15251 | 6.14e5 | inactive
Or33b (Odorant receptor 33b) | DRSC03387 | – | – | 4559 | 2.51e5 | inactive
Sema1a (Semaphorin 1a) | DRSC03433 | – | – | 5858 | 4.35e5 | inactive
Non1 (Novel nucleolar protein 1) | DRSC05954 | – | – | 8624 | 4.11e5 | inactive
CG31086 + CG31323 | DRSC14902 | – | – | 6744 | 3.37e5 | inactive
mRpL18 (mitochondrial ribosomal protein L18) | DRSC06142 | – | – | 4678 | 3.29e5 | inactive
CG17841 | DRSC17737 | – | – | 7490 | 3.58e5 | inactive
Or65a (Odorant receptor 65a) | DRSC08808 | – | – | 6158 | 5.25e5 | inactive
RluA-1 (RluA pseudouridine synthase 1) | DRSC02240 | – | – | 5871 | 3.33e5 | inactive
RluA-1 (RluA pseudouridine synthase 1) | DRSC03060 | – | – | 7060 | 4.40e5 | inactive
CG1638 | DRSC15132 | – | – | 6743 | 6.20e5 | inactive
CG5721 | DRSC06945 | – | – | 7968 | 3.24e5 | inactive
CG33286 | DRSC11691 | – | – | 7490 | 3.82e5 | inactive
CG15022 | DRSC08476 | – | – | 8665 | 4.36e5 | inactive
mRpL1 (mitochondrial ribosomal protein L1) | DRSC16251 | – | – | 6224 | 3.98e5 | inactive
Mer (Merlin) | DRSC20259 | – | – | 8440 | 5.36e5 | inactive
Akt (Akt kinase) | DRSC14108 | – | – | 7618 | 3.56e5 | inactive
Cdc23 (Cell division cycle 23) | DRSC02708 | – | – | 4.00e5 | 2.08e6 | inactive
Tango9 (Transport and Golgi organization 9) | DRSC14173 | – | – | 9027 | 4.63e5 | inactive
Oatp33Ea (Organic anion transporting polypeptide 33Ea) | DRSC02859 | – | – | 31270 | 6.03e5 | inactive
Ugt37A1 (UDP-glycosyltransferase family 37 member A1) | DRSC02114 | – | – | 8069 | 4.60e5 | inactive
CG4645 | DRSC19907 | – | – | 7799 | 3.70e5 | inactive
CG1074 | DRSC12143 | reporter ratio raised past the hit cutoff | – | 6051 | 2.01e5 | inactive
cocoon | DRSC10916 | – | – | 6126 | 3.87e5 | inactive
Cyp9c1 (Cytochrome P450 9c1) | DRSC04607 | – | – | 16222 | 9.59e5 | inactive
hop (hopscotch) | DRSC20340 | – | – | 5614 | 5.94e5 | inactive
hop (hopscotch) | DRSC23334 | – | – | 4683 | 3.10e5 | inactive
CG17896 | DRSC18502 | – | – | 5572 | 4.73e5 | inactive
Ccm3 (Cerebral cavernous malformation 3) | DRSC15711 | reporter ratio lowered past the hit cutoff | – | 6404 | 5.93e5 | inactive
alphaTub67C (alpha-Tubulin at 67C) | DRSC11321 | – | – | 7861 | 4.40e5 | inactive
CG4282 | DRSC06865 | – | – | 9773 | 3.58e5 | inactive
CG7294 | DRSC03041 | – | – | 7343 | 4.76e5 | inactive
CG30076 | DRSC05494 | – | – | 6214 | 4.63e5 | inactive
CG10907 | DRSC09804 | – | – | 7026 | 4.11e5 | inactive
CG32971 | DRSC01372 | – | – | 5124 | 2.90e5 | inactive
superdeath (Suppressor of ER stress-induced death) | DRSC14868 | – | – | 3564 | 3.81e5 | inactive
Karybeta3 (Karyopherin beta 3) | DRSC12355 | – | – | 11518 | 4.00e5 | inactive
CG13625 | DRSC14627 | – | – | 7256 | 3.74e5 | inactive
Ntf-2r (Nuclear transport factor-2-related) | DRSC02019 | – | – | 8478 | 4.43e5 | inactive
CG3097 | DRSC18275 | – | – | 7035 | 5.02e5 | inactive
ocm (over compensating males) | DRSC04360 | – | – | 18016 | 1.20e6 | inactive
CG11911 | DRSC00331 | – | – | 12848 | 3.89e5 | inactive
Bicra | DRSC14417 | – | – | 6212 | 3.02e5 | inactive
TTLL15 (Tubulin tyrosine ligase-like 15) | DRSC15543 | – | – | 7047 | 3.40e5 | inactive
CG12448 | DRSC01967 | – | – | 6982 | 3.22e5 | inactive
sesB (stress-sensitive B) | DRSC20371 | – | – | 4979 | 4.29e5 | inactive
Rnb (R and B) | DRSC16325 | – | – | 7786 | 3.32e5 | inactive
CG15117 | DRSC06539 | – | – | 10950 | 5.40e5 | inactive
fwe (flower) | DRSC09398 | – | – | 5779 | 3.53e5 | inactive
fwe (flower) | DRSC10594 | – | – | 8966 | 3.85e5 | inactive
fwe (flower) | DRSC21400 | – | – | 10682 | 4.62e5 | inactive
CG9289 | DRSC03187 | – | – | 7235 | 3.78e5 | inactive
CG7049 | DRSC08587 | – | – | 9673 | 2.96e5 | inactive
CG4168 | DRSC01446 | – | – | 5283 | 3.82e5 | inactive
CG4168 | DRSC01447 | – | – | 5654 | 4.05e5 | inactive
CG4168 | DRSC01933 | – | – | 69869 | 1.36e6 | inactive
CG4168 | DRSC21319 | – | – | 8739 | 5.61e5 | inactive
CG4168 | DRSC22789 | – | – | 4191 | 4.30e5 | inactive
CG13482 | DRSC10024 | – | – | 9317 | 3.04e5 | inactive
cue (cueball) | DRSC08248 | – | – | 11124 | 6.40e5 | inactive
VAChT (Vesicular acetylcholine transporter) | DRSC13311 | – | – | 4822 | 4.44e5 | inactive
VAChT (Vesicular acetylcholine transporter) | DRSC16608 | – | – | 7854 | 3.53e5 | inactive
CG5707 | DRSC08573 | – | – | 13374 | 4.97e5 | inactive
eIF3d2 (eukaryotic translation initiation factor 3 subunit d2) | DRSC15651 | reporter ratio lowered past the hit cutoff | – | 4015 | 3.58e5 | inactive
Sgt (small glutamine-rich tetratricopeptide containing protein) | DRSC02812 | – | – | 46366 | 2.27e6 | inactive
CG12268 | DRSC14491 | – | – | 6874 | 3.81e5 | inactive
Vps25 (Vacuolar protein sorting 25) | DRSC06486 | – | – | 7909 | 5.06e5 | inactive
CG8195 | DRSC07103 | – | – | 8431 | 3.37e5 | inactive
